Results: publication doi:10.1101/2020.03.14.989954
These are yes or no findings as the source states them, for the method shown. For some of these results: Binding seen in cells or lysates may run through a third protein. Some binding calls cover weakened binding; strength is not graded here. For some of these results: Where a sequence is shown, tags or fusion partners need not be part of it.

Protein sequences, listed by entry. Tags and fused reporters are not part of them.
UniProt Q92963: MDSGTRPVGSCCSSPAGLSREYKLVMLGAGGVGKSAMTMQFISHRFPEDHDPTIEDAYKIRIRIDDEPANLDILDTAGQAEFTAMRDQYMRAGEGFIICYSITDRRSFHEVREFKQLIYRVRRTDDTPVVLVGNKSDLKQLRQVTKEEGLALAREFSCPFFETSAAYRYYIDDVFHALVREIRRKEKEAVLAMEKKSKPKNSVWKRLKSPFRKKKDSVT

Tests used:
[1] = target: T1, endogenous LZTR1 (U87-MG) (human (endogenous in U87-MG)) (UniProt Q8N653); experiment: co-IP
T1 sequence: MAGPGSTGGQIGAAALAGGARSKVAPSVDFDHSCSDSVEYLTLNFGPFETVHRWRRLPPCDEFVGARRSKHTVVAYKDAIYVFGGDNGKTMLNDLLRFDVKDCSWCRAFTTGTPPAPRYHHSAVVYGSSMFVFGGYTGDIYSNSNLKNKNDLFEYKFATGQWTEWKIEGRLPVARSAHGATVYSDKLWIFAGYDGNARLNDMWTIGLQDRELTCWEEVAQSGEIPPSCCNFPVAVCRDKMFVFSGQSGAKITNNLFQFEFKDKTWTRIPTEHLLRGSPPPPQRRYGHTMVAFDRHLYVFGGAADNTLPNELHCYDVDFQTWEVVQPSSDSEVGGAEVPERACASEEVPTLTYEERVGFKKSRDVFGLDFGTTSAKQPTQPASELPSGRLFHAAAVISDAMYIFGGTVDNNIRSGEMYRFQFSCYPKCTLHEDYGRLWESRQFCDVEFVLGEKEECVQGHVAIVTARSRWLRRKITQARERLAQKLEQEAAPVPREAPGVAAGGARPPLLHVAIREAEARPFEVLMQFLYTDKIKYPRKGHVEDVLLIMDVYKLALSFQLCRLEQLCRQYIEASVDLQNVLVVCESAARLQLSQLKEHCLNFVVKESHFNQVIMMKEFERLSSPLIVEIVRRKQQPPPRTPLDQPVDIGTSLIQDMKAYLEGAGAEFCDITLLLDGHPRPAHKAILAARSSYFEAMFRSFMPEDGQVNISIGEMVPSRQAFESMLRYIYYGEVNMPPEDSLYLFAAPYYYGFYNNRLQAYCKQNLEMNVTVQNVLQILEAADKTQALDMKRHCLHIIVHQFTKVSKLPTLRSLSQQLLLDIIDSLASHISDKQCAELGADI

FLAG-LZTR1 = target: T2, FLAG-LZTR1 (UniProt Q8N653); experiment: co-IP
T2 sequence: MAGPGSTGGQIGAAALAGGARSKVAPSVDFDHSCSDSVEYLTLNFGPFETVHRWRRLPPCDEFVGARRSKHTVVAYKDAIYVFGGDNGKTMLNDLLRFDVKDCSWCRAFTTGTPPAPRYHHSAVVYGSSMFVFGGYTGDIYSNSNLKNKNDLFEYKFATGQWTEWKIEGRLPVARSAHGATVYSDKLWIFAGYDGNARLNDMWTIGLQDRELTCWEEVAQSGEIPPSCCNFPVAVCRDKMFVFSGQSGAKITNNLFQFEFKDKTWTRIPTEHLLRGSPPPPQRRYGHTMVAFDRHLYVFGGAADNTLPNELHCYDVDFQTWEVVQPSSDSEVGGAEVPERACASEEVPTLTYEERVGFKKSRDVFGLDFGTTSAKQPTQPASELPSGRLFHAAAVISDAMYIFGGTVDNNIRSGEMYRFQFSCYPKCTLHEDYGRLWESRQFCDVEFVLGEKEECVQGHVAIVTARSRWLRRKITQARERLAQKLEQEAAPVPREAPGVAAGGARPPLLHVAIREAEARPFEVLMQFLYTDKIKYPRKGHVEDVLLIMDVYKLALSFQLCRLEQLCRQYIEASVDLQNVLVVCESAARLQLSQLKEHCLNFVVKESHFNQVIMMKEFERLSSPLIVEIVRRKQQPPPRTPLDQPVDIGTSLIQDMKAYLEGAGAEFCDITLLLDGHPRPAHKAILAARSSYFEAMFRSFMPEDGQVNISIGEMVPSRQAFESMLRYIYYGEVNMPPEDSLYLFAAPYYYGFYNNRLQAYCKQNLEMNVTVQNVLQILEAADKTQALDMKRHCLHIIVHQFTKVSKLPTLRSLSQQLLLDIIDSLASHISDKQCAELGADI

GST-LZTR1 = target: T3, GST-LZTR1 (UniProt Q8N653); experiment: pull-down
T3 sequence: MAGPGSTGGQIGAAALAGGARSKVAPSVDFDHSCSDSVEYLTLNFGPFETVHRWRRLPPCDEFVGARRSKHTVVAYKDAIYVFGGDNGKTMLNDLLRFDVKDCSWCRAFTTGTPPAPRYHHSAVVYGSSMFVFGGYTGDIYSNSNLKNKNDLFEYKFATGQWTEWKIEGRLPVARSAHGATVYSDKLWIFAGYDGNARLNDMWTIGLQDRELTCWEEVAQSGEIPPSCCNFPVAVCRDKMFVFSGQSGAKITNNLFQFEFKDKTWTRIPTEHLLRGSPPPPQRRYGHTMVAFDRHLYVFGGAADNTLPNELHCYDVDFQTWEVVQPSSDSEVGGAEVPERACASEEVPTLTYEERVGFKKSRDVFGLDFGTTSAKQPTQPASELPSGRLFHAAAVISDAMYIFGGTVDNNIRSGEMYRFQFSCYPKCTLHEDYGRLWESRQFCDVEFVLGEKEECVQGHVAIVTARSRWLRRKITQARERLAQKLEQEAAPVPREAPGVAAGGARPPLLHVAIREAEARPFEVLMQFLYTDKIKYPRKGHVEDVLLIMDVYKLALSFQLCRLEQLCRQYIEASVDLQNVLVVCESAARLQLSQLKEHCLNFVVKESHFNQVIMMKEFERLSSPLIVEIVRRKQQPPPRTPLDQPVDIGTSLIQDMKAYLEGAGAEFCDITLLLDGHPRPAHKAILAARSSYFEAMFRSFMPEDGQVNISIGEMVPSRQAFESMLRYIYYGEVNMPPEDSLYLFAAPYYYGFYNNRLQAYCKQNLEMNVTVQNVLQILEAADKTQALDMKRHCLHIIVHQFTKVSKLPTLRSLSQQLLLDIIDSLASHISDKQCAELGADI

[2] = target: T4, LZTR1, wild type, full length (transfected, Figs 1H, 3B, 3E, 3G, 4B), Q8N653; experiment: co-IP; details: remark: other sources report otherwise
T4 chain: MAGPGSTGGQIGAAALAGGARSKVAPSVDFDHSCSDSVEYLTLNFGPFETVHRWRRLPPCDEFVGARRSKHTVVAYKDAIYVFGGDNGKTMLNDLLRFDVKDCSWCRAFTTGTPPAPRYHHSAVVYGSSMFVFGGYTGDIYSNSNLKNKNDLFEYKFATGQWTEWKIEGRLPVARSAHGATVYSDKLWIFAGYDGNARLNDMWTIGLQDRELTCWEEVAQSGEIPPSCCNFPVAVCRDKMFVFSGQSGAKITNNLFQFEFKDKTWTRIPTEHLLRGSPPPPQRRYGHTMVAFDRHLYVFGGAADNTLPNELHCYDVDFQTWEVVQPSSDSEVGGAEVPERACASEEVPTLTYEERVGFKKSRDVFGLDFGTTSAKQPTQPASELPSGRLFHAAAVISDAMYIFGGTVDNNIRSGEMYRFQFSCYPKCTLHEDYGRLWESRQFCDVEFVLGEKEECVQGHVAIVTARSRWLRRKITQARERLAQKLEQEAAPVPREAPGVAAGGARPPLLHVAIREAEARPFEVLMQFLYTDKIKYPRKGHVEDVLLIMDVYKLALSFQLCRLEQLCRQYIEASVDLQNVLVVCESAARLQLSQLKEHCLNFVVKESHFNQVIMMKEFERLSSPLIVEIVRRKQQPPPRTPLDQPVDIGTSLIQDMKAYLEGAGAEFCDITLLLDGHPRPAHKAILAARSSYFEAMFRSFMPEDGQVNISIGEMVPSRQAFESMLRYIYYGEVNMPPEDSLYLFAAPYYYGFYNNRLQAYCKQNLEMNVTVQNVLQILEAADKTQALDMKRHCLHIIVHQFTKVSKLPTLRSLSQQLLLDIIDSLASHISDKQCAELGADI

[3] = target: endogenous RIT1 (U87-MG) (human (endogenous in U87-MG)) (UniProt Q92963); experiment: co-IP
FLAG-LZTR1, Q8N653 = target: T5, FLAG-LZTR1, Q8N653; experiment: co-IP; details: remark: other sources report otherwise
T5 chain: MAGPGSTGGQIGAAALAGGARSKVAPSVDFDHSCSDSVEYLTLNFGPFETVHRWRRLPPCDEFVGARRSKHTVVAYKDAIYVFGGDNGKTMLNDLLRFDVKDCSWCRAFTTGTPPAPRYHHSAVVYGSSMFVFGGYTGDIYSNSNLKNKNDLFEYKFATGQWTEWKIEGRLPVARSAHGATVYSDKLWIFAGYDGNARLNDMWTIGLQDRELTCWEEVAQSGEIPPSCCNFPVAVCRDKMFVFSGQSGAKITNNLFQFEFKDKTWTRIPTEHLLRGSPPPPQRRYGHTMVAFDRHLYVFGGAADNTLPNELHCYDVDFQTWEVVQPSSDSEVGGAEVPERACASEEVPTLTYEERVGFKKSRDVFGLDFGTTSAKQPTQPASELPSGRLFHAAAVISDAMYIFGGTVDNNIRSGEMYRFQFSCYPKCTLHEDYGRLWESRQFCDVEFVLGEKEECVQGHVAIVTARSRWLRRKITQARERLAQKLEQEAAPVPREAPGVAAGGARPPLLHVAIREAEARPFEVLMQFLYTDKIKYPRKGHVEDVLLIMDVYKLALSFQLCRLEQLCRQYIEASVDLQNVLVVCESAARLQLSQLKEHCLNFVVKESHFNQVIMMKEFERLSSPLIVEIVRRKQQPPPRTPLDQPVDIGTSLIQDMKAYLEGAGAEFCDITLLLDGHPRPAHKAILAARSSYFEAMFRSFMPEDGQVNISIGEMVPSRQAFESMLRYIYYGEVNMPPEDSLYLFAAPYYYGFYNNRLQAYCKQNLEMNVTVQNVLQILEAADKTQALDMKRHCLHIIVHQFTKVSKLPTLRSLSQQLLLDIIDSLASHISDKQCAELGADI

## endogenous RIT1 (U87-MG) (from UniProt Q92963 1-219)
[1]
  binding: binds

## endogenous RIT1 (293T) (from UniProt Q92963 1-219)
FLAG-LZTR1
  binding: binds

## SOS1 (from UniProt Q07889 1-1333)
FLAG-LZTR1
  binding: no binding

## His-RIT1 (from UniProt Q92963 1-219)
GST-LZTR1
  binding: binds

B1: LZTR1, wild type, full length (transfected, Figs 1H, 3B, 3E, 3G, 4B), Q8N653 1-840 (protein)
chain: MAGPGSTGGQIGAAALAGGARSKVAPSVDFDHSCSDSVEYLTLNFGPFETVHRWRRLPPCDEFVGARRSKHTVVAYKDAIYVFGGDNGKTMLNDLLRFDVKDCSWCRAFTTGTPPAPRYHHSAVVYGSSMFVFGGYTGDIYSNSNLKNKNDLFEYKFATGQWTEWKIEGRLPVARSAHGATVYSDKLWIFAGYDGNARLNDMWTIGLQDRELTCWEEVAQSGEIPPSCCNFPVAVCRDKMFVFSGQSGAKITNNLFQFEFKDKTWTRIPTEHLLRGSPPPPQRRYGHTMVAFDRHLYVFGGAADNTLPNELHCYDVDFQTWEVVQPSSDSEVGGAEVPERACASEEVPTLTYEERVGFKKSRDVFGLDFGTTSAKQPTQPASELPSGRLFHAAAVISDAMYIFGGTVDNNIRSGEMYRFQFSCYPKCTLHEDYGRLWESRQFCDVEFVLGEKEECVQGHVAIVTARSRWLRRKITQARERLAQKLEQEAAPVPREAPGVAAGGARPPLLHVAIREAEARPFEVLMQFLYTDKIKYPRKGHVEDVLLIMDVYKLALSFQLCRLEQLCRQYIEASVDLQNVLVVCESAARLQLSQLKEHCLNFVVKESHFNQVIMMKEFERLSSPLIVEIVRRKQQPPPRTPLDQPVDIGTSLIQDMKAYLEGAGAEFCDITLLLDGHPRPAHKAILAARSSYFEAMFRSFMPEDGQVNISIGEMVPSRQAFESMLRYIYYGEVNMPPEDSLYLFAAPYYYGFYNNRLQAYCKQNLEMNVTVQNVLQILEAADKTQALDMKRHCLHIIVHQFTKVSKLPTLRSLSQQLLLDIIDSLASHISDKQCAELGADI
[2]
  binding: binds

B2: endogenous LZTR1 (U87-MG) (protein, UniProt Q8N653 1-840)
chain: MAGPGSTGGQIGAAALAGGARSKVAPSVDFDHSCSDSVEYLTLNFGPFETVHRWRRLPPCDEFVGARRSKHTVVAYKDAIYVFGGDNGKTMLNDLLRFDVKDCSWCRAFTTGTPPAPRYHHSAVVYGSSMFVFGGYTGDIYSNSNLKNKNDLFEYKFATGQWTEWKIEGRLPVARSAHGATVYSDKLWIFAGYDGNARLNDMWTIGLQDRELTCWEEVAQSGEIPPSCCNFPVAVCRDKMFVFSGQSGAKITNNLFQFEFKDKTWTRIPTEHLLRGSPPPPQRRYGHTMVAFDRHLYVFGGAADNTLPNELHCYDVDFQTWEVVQPSSDSEVGGAEVPERACASEEVPTLTYEERVGFKKSRDVFGLDFGTTSAKQPTQPASELPSGRLFHAAAVISDAMYIFGGTVDNNIRSGEMYRFQFSCYPKCTLHEDYGRLWESRQFCDVEFVLGEKEECVQGHVAIVTARSRWLRRKITQARERLAQKLEQEAAPVPREAPGVAAGGARPPLLHVAIREAEARPFEVLMQFLYTDKIKYPRKGHVEDVLLIMDVYKLALSFQLCRLEQLCRQYIEASVDLQNVLVVCESAARLQLSQLKEHCLNFVVKESHFNQVIMMKEFERLSSPLIVEIVRRKQQPPPRTPLDQPVDIGTSLIQDMKAYLEGAGAEFCDITLLLDGHPRPAHKAILAARSSYFEAMFRSFMPEDGQVNISIGEMVPSRQAFESMLRYIYYGEVNMPPEDSLYLFAAPYYYGFYNNRLQAYCKQNLEMNVTVQNVLQILEAADKTQALDMKRHCLHIIVHQFTKVSKLPTLRSLSQQLLLDIIDSLASHISDKQCAELGADI
[3]
  binding: binds

B3: ARAF, P10398 1-606 (protein)
chain: MEPPRGPPANGAEPSRAVGTVKVYLPNKQRTVVTVRDGMSVYDSLDKALKVRGLNQDCCVVYRLIKGRKTVTAWDTAIAPLDGEELIVEVLEDVPLTMHNFVRKTFFSLAFCDFCLKFLFHGFRCQTCGYKFHQHCSSKVPTVCVDMSTNRQQFYHSVQDLSGGSRQHEAPSNRPLNELLTPQGPSPRTQHCDPEHFPFPAPANAPLQRIRSTSTPNVHMVSTTAPMDSNLIQLTGQSFSTDAAGSRGGSDGTPRGSPSPASVSSGRKSPHSKSPAEQRERKSLADDKKKVKNLGYRDSGYYWEVPPSEVQLLKRIGTGSFGTVFRGRWHGDVAVKVLKVSQPTAEQAQAFKNEMQVLRKTRHVNILLFMGFMTRPGFAIITQWCEGSSLYHHLHVADTRFDMVQLIDVARQTAQGMDYLHAKNIIHRDLKSNNIFLHEGLTVKIGDFGLATVKTRWSGAQPLEQPSGSVLWMAAEVIRMQDPNPYSFQSDVYAYGVVLYELMTGSLPYSHIGCRDQIIFMVGRGYLSPDLSKISSNCPKAMRRLLSDCLKFQREERPLFPQILATIELLQRSLPKIERSASEPSLHRTQADELPACLLSAARLVP
FLAG-LZTR1, Q8N653
  binding: no binding
